Assay results reported in the supplement of paper PMC12819154, “High-throughput peptide-centric local stability assay extends protein–ligand identification to membrane proteins, tissues and bacteria” (Nature Structural & Molecular Biology, 2025).
The other results are listed elsewhere or left out. Most values lie at the level of the controls, where differences are scatter.

Protein sequences, listed by entry. Tags and fused reporters are not part of them. Lines headed by an entry give the natural chain unless they say otherwise; changes in a name come on top.
UniProt Q9UNW1: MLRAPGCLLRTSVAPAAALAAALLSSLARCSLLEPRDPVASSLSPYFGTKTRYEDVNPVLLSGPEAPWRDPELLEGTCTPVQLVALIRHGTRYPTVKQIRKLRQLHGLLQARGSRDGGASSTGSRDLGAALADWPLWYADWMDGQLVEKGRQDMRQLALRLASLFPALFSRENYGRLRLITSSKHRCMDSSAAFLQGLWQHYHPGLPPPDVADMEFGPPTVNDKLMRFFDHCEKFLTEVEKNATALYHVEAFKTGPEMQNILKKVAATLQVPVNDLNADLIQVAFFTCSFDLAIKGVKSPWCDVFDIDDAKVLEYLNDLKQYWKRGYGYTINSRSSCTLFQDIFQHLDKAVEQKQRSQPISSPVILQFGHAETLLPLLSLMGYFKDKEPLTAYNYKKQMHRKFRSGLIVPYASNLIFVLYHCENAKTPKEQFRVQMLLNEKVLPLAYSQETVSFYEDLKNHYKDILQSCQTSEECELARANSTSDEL
UniProt Q9Y232: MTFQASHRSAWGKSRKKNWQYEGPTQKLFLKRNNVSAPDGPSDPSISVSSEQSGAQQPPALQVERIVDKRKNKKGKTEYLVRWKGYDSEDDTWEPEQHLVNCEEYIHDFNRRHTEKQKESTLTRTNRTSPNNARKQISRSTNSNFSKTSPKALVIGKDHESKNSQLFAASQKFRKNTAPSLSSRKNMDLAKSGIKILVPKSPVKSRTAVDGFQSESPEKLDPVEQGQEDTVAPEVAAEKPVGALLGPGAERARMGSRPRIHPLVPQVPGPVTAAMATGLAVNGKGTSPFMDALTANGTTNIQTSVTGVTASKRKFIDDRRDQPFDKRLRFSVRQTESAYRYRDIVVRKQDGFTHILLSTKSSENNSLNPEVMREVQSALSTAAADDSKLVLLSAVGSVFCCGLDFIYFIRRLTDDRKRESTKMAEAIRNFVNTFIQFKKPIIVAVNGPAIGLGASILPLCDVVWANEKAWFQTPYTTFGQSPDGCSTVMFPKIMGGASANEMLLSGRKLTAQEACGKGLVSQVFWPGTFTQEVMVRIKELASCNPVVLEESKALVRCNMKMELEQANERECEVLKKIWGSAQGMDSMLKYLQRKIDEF
UniProt Q9ULM3: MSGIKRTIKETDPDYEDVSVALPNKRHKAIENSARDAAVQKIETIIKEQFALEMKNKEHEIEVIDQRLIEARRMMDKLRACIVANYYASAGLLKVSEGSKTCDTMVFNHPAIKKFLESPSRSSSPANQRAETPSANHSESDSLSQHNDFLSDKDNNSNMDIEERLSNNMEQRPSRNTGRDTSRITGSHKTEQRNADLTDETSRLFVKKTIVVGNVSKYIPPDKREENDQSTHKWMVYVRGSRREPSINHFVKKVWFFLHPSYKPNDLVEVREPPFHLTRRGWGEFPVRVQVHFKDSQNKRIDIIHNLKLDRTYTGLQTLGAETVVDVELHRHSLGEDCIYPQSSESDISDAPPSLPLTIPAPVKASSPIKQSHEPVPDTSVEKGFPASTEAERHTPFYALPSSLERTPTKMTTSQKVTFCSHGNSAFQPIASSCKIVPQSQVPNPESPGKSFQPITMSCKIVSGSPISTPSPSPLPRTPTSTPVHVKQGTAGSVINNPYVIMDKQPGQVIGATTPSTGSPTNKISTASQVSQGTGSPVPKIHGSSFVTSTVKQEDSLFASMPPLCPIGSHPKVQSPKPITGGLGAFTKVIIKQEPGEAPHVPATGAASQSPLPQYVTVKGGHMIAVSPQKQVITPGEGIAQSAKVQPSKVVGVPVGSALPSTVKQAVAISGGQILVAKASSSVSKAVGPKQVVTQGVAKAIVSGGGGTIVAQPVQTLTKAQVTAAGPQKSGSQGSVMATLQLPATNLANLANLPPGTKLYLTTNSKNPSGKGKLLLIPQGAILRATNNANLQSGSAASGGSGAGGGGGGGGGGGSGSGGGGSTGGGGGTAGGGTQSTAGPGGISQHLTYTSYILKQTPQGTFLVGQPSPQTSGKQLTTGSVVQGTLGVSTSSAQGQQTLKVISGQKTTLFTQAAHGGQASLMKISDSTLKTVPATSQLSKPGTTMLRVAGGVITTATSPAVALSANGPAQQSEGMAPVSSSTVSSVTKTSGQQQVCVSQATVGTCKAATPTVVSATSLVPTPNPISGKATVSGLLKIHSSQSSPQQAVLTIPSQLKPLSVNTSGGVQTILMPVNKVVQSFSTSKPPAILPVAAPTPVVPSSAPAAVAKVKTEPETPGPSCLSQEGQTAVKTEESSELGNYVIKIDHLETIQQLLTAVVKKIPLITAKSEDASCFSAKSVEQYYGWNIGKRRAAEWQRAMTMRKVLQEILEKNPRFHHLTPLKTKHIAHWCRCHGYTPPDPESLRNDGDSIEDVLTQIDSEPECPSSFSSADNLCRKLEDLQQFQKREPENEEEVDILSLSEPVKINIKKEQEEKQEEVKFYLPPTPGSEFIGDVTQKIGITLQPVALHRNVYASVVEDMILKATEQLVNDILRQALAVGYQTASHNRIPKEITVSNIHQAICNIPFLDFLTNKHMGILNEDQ
UniProt Q9UQB8: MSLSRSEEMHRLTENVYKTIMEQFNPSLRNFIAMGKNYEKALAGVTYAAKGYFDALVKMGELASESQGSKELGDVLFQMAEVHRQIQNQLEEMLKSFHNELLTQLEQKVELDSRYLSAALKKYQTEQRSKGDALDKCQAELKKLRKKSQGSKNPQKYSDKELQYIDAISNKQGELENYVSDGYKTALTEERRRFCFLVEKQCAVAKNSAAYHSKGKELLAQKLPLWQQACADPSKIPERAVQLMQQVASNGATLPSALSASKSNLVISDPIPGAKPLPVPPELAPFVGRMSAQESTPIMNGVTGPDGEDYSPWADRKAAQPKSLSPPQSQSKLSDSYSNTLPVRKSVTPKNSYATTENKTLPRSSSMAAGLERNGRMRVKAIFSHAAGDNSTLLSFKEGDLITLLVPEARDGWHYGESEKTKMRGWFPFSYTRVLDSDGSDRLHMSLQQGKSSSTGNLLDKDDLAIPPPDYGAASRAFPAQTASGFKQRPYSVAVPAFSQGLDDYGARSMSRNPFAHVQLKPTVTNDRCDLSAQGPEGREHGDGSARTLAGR
UniProt Q9Y3B2, whole entry: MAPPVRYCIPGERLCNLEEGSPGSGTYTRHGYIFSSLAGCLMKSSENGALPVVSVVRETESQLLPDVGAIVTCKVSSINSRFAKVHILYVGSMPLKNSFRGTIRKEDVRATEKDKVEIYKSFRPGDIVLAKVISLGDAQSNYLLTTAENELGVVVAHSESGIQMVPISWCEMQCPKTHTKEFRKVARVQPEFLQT
UniProt Q9Y2B0: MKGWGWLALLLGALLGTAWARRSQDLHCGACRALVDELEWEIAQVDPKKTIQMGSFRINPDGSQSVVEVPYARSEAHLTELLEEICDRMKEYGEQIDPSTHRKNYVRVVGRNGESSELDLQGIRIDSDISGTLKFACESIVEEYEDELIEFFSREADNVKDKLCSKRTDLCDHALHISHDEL
UniProt Q9Y324: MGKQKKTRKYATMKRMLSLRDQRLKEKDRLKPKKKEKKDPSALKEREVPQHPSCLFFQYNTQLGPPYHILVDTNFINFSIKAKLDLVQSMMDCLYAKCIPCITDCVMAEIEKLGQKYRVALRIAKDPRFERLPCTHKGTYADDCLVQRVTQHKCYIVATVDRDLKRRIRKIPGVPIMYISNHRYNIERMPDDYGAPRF
UniProt Q9ULR0: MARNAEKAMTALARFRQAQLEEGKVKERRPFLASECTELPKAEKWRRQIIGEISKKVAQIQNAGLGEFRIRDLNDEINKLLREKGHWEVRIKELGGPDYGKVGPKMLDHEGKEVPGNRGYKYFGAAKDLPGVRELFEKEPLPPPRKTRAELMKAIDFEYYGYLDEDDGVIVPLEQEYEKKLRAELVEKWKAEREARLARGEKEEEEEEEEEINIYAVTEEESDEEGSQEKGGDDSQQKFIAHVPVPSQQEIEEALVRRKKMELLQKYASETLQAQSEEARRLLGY
UniProt Q9Y2H6: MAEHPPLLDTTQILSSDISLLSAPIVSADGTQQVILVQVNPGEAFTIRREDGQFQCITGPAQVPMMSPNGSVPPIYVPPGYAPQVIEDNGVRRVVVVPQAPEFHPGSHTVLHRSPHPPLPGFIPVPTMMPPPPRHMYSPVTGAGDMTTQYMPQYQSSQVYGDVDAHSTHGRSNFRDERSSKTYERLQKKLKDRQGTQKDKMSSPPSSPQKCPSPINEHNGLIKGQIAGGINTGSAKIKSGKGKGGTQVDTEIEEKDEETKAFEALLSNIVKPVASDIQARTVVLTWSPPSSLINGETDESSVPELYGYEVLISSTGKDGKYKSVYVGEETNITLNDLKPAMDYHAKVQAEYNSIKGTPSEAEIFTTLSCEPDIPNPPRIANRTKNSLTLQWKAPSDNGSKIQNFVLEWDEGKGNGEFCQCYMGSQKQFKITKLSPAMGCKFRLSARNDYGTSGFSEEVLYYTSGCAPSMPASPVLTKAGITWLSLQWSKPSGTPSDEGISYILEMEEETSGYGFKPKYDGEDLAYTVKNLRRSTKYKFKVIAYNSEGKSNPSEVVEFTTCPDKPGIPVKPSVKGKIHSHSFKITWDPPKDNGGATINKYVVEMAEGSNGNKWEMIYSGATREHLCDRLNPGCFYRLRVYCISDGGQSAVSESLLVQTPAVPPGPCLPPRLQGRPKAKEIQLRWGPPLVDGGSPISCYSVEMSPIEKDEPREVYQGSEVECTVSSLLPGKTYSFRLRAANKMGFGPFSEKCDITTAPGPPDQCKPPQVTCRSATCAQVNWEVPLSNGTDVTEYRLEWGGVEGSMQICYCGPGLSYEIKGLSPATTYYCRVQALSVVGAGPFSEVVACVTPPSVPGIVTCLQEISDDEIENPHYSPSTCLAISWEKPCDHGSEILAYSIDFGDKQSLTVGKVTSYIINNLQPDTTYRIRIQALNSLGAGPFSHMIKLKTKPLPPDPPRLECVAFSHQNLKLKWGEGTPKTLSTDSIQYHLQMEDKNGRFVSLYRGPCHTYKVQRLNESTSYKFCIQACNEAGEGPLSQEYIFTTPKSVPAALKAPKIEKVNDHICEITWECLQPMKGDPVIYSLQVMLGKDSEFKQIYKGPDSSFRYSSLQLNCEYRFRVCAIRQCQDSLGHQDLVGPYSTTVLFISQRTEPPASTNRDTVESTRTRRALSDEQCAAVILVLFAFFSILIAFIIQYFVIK
UniProt Q9UMS0: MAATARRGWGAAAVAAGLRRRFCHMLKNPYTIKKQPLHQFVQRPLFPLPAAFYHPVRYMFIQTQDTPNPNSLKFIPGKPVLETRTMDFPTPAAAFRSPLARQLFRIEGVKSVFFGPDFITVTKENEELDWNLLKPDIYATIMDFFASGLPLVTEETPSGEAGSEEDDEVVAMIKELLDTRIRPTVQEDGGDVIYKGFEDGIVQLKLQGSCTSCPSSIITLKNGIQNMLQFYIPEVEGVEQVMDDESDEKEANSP
UniProt Q9Y3A5: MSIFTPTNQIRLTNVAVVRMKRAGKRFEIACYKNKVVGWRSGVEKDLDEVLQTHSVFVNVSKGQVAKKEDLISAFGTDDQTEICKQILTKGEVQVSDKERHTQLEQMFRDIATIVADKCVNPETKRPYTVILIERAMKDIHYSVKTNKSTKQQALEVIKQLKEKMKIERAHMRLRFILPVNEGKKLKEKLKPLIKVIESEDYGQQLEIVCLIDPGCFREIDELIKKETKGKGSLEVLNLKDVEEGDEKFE
UniProt Q9UPU7: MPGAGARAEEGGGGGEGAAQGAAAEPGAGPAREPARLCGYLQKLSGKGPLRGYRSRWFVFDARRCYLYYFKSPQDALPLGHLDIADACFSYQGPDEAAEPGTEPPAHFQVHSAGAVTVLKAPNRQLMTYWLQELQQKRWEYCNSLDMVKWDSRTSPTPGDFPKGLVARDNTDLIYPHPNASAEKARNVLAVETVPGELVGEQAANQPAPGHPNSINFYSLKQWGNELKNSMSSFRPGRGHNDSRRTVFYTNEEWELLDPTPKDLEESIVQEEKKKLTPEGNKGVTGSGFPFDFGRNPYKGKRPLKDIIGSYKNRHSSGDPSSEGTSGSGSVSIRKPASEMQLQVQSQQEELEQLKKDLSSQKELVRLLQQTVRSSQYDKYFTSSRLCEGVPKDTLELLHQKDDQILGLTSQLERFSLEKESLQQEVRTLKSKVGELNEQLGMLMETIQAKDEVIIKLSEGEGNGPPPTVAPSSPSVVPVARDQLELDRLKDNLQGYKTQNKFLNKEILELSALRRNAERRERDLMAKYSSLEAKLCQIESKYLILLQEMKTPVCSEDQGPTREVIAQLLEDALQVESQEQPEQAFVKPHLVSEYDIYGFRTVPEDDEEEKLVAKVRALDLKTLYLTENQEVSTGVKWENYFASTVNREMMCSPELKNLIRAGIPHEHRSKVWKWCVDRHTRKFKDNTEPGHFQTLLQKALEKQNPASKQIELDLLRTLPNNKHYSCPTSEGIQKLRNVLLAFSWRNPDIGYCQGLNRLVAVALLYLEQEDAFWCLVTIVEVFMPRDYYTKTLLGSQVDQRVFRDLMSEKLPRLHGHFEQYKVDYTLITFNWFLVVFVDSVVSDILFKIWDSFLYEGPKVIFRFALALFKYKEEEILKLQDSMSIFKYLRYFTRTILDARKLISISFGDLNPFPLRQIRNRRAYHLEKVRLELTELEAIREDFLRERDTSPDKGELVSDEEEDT

compound: CN[C@@H]1C[C@H]2O[C@@](C)([C@@H]1OC)n1c3ccccc3c3c4c(c5c6ccccc6n2c5c31)C(=O)NC4 [staurosporine]; assay: log2 fold change of tryptic peptide abundance, ligand vs vehicle (limited proteolysis) (log2 ratio); higher = more trypsin-susceptible (destabilized); details: ligand concentration: 20 uM; sample: K562 cleared lysate; digestion: 4 min, 22 C (HT-PELSA RT4min, Orbitrap Astral)

Target	log2 fold change
CCPG1 (peptide sequence: TVSASESEDR, peptide start residue: 184) (UniProt Q9ULG6)	-0.0836
MINPP1 (peptide sequence: CSLLEPR, peptide start residue: 30) (UniProt Q9UNW1)	-0.441
UniProt Q9Y2K5 (peptide sequence: TEADKLFTQLAMSGAK, peptide start residue: 881)	-0.202
CDYL (peptide sequence: NSQLFAASQK, peptide start residue: 163) (UniProt Q9Y232)	-0.168
FOXJ3 (peptide sequence: HNLSLNKCFLK, peptide start residue: 128) (UniProt Q9UPW0)	-1.29
YEATS2 (peptide sequence: TVPATSQLSKPGTTMLR, peptide start residue: 931) (UniProt Q9ULM3)	0.322
BAIAP2 (peptide sequence: CQAELKK, peptide start residue: 137) (UniProt Q9UQB8)	-0.403
UniProt Q9Y2M0 (peptide sequence: SNDVVCKNQDELR, peptide start residue: 131)	-0.956
EXOSC1 (peptide sequence: ETESQLLPDVGAIVTCK, peptide start residue: 58) (UniProt Q9Y3B2)	0.108
ACIN1 (peptide sequence: TGTLVEEAFWIDKIK, peptide start residue: 1035) (UniProt Q9UKV3)	0.737
RBMX2 (peptide sequence: SSDAHSSWYNGR, peptide start residue: 272) (UniProt Q9Y388)	0.352
CDC14A (peptide sequence: MALSPSATAK, peptide start residue: 450) (UniProt Q9UNH5)	0.243
CNPY2 (peptide sequence: ALVDELEWEIAQVDPKK, peptide start residue: 33) (UniProt Q9Y2B0)	0.238
UniProt Q9ULD5 (peptide sequence: NCTEGIVIK, peptide start residue: 444)	0.438
UniProt Q9UKV8 (peptide sequence: AVQVHQDTLRTMYFA, peptide start residue: 845)	0.74
UniProt Q9UQ88 (peptide sequence: FLTYFPGR, peptide start residue: 703)	-0.28
POMP (peptide sequence: NIQGLFAPLK, peptide start residue: 69) (UniProt Q9Y244)	0.234
FCF1 (peptide sequence: GTYADDCLVQR, peptide start residue: 138) (UniProt Q9Y324)	0.321
RUVBL2 (peptide sequence: KEVVHTVSLHEIDVINSR, peptide start residue: 236) (UniProt Q9Y230)	0.325
ISY1 (peptide sequence: YASETLQAQSEEAR, peptide start residue: 267) (UniProt Q9ULR0)	-0.504
FNDC3A (peptide sequence: DKMSSPPSSPQK, peptide start residue: 199) (UniProt Q9Y2H6)	-0.776
BTRC (peptide sequence: TYTYISR, peptide start residue: 599) (UniProt Q9Y297)	-0.145
INTU (peptide sequence: RETSHPR, peptide start residue: 269) (UniProt Q9ULD6)	0.965
NFU1 (peptide sequence: TMDFPTPAAAFR, peptide start residue: 85) (UniProt Q9UMS0)	0.157
SBDS (peptide sequence: FILPVNEGK, peptide start residue: 176) (UniProt Q9Y3A5)	0.336
FZR1 (peptide sequence: GLFTYSLSTK, peptide start residue: 126) (UniProt Q9UM11)	-0.161
NENF (peptide sequence: LFTEEELAR, peptide start residue: 46) (UniProt Q9UMX5)	-0.316
TBC1D2B (peptide sequence: EILELSALR, peptide start residue: 506) (UniProt Q9UPU7)	-0.157
DNPEP (peptide sequence: VLDLGSPQLAMHSIR, peptide start residue: 439) (UniProt Q9ULA0)	-0.349

Single entries from the results shown:
For log2 fold change, POMP (peptide sequence: NIQGLFAPLK, peptide start residue: 69) (UniProt Q9Y244) is entered as 0.234
For log2 fold change, UniProt Q9Y2K5 (peptide sequence: TEADKLFTQLAMSGAK, peptide start residue: 881) is entered as -0.202
